Data: PMC3365051, “Sequence-Specific Binding of Recombinant Zbed4 to DNA: Insights into Zbed4 Participation in Gene Transcription and Its Association with Other Proteins”
Results are given in words; binding and its absence hold for the method and conditions named. For some assays here: In cells and extracts the contact can be indirect. Some binding calls cover weakened binding; strength is not graded here. For some assays here: Tags and fused reporters may be left off the sequences shown. Blank lines part the entries; values can stand above or below the molecule they belong to.

The chains behind the UniProt entries cited, without tags or fusion partners.
UniProt Q15424: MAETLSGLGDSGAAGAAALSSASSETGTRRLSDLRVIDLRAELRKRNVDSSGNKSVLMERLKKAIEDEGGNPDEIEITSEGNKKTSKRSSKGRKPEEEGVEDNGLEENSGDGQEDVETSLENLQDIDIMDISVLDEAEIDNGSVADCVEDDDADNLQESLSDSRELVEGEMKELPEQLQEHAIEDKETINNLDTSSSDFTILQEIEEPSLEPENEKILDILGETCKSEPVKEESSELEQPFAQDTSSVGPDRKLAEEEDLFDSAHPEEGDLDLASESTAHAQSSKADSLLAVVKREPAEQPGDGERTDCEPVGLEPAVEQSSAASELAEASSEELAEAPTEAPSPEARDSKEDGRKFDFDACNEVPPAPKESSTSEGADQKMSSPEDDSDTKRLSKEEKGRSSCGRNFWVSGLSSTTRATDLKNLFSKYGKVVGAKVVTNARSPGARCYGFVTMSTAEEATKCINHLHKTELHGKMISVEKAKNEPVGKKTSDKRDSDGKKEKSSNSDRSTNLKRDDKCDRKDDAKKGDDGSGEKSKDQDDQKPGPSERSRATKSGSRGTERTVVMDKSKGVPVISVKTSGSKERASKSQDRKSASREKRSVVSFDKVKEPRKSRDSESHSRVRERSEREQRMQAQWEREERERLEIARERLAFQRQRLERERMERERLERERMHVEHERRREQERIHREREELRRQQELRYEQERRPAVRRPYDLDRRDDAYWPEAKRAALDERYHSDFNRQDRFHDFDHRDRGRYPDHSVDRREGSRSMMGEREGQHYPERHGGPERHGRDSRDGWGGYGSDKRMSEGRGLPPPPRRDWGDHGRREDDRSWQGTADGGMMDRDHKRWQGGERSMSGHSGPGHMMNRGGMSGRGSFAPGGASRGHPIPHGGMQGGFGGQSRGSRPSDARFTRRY
UniProt P03372: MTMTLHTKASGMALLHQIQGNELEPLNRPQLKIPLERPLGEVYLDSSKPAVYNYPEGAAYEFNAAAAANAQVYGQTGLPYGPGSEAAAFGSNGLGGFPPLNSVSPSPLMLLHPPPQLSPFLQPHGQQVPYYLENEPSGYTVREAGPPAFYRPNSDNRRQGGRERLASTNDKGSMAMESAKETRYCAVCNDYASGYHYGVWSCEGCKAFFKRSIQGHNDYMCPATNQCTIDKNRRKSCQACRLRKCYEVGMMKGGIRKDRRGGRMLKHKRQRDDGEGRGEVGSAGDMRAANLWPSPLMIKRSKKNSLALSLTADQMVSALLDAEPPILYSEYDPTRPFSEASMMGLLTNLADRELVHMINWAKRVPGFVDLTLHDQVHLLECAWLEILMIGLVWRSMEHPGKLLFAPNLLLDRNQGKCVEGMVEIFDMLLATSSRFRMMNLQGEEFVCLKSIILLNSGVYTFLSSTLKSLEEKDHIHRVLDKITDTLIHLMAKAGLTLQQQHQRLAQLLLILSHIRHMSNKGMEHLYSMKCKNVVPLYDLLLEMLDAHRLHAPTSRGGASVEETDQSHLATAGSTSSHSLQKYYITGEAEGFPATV
UniProt P35579: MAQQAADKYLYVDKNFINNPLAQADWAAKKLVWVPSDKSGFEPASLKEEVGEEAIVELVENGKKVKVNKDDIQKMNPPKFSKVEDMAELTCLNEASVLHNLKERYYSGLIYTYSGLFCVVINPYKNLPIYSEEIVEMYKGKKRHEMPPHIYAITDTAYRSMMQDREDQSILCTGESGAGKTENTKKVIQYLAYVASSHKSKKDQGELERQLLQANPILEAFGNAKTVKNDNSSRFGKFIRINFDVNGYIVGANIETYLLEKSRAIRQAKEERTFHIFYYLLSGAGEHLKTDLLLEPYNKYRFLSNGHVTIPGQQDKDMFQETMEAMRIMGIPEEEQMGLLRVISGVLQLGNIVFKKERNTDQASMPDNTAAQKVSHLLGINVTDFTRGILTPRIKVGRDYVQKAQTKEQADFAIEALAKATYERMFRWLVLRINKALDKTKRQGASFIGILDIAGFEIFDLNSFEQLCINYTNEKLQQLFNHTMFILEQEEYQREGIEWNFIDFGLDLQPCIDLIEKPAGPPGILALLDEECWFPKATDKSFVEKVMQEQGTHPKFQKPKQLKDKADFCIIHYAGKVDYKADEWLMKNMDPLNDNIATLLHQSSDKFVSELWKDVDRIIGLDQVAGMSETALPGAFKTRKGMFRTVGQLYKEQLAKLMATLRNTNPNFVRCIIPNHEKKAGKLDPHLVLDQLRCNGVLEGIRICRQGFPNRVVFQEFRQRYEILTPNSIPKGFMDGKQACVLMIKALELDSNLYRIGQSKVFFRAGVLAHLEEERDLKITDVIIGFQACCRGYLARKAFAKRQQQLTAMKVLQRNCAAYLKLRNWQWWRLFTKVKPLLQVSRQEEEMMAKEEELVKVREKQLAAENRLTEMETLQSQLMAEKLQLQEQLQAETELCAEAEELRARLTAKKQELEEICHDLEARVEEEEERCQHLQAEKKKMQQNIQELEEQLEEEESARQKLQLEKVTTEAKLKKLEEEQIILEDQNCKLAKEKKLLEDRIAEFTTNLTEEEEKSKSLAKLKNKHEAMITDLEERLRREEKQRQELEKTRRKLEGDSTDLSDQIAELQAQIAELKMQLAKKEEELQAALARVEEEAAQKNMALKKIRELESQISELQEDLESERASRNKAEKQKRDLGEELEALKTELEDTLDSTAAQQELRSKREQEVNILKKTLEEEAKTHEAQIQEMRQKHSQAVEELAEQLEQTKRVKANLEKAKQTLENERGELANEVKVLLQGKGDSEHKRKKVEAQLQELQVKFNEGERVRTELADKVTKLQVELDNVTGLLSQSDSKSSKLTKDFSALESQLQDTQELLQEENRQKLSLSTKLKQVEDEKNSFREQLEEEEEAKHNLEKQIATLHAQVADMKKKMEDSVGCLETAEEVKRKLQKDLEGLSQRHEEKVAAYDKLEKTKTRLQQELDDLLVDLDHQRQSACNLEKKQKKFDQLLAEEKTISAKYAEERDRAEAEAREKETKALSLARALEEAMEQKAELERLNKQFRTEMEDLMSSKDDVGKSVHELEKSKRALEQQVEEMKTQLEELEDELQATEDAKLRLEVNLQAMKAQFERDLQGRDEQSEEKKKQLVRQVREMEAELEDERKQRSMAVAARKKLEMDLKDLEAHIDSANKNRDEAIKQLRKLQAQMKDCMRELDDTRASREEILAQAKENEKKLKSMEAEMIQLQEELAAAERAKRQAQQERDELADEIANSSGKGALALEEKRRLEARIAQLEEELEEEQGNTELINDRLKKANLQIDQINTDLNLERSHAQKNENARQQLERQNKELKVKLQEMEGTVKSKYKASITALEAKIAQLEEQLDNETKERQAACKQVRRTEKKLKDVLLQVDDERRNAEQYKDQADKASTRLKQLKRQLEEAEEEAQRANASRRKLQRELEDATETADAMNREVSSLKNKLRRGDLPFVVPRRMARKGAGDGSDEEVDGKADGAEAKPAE

How the values were obtained:
[1] = target: T1, endogenous ZBED4 of Y79 retinoblastoma cells (human (endogenous in Y79)) (UniProt O75132); assay: co-IP; Y79 retinoblastoma cell (nuclear) extracts; immunoprecipitation with Zbed4, SAFB1 or MYH9 antibodies; Western blot with the partner's antibody; endogenous proteins
T1 sequence: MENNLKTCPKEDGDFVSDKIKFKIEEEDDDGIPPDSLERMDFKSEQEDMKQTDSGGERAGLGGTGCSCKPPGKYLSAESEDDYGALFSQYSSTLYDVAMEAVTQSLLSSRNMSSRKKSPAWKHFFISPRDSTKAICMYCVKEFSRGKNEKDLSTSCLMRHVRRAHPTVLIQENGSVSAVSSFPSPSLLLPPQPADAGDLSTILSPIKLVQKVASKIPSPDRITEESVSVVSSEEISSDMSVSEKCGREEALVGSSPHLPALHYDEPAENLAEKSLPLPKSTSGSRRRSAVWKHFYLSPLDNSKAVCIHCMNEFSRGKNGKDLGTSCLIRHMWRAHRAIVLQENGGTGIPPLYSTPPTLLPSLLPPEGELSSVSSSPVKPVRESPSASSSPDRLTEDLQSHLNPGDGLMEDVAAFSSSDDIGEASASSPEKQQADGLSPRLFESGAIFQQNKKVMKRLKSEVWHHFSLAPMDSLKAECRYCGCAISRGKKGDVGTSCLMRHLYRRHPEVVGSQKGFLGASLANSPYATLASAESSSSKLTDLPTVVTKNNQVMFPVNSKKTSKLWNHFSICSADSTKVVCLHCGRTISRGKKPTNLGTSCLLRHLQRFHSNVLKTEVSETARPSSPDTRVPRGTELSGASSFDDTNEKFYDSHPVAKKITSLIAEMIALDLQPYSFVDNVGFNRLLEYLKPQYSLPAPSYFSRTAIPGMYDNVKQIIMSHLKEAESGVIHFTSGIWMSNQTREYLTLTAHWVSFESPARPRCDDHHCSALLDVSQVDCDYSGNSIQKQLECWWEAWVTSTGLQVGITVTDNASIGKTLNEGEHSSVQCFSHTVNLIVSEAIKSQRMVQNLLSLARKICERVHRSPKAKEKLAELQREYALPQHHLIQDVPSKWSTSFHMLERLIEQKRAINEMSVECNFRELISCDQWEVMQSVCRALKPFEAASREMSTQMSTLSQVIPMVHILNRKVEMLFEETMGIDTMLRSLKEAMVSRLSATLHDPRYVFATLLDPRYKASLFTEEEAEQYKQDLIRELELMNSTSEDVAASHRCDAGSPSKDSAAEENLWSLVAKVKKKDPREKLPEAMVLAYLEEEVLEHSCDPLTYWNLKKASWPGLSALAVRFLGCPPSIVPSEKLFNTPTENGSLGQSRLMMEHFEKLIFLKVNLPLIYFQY

[2] = target: Scaffold Attachment Factor B1 (human (endogenous in Y79)) (UniProt Q15424); assay: far-Western, overlay or dot blot; Y79 nuclear extract resolved by SDS-PAGE and transferred to PVDF; overlaid with purified Zbed4 (5-10 ug/ml) for 2 h at 5°C in 10 mM Tris-HCl pH 8, 150 mM NaCl, 0.05% Tween-20; lanes probed with Zbed4, SAFB1 or ERα antibodies; only the binder purified
[3] = target: estrogen receptor alpha (human (endogenous in Y79)) (UniProt P03372); assay: as above
[4] = target: Scaffold Attachment Factor B1 (human (endogenous in Y79)) (UniProt Q15424); assay: co-IP; Y79 retinoblastoma cell (nuclear) extracts; immunoprecipitation with Zbed4, SAFB1 or MYH9 antibodies; Western blot with the partner's antibody; endogenous proteins
[5] = target: cellular myosin 9 (human (endogenous in Y79)) (UniProt P35579); assay: as above

- binding [1]: binds
Molecule: cellular myosin 9 (from UniProt P35579 1-1960)

- binding [2]: binds
- binding [3]: binds
B1: recombinant Zbed4 (mouse), His-tagged, refolded (protein, UniProt Q80WQ9 1-1168)
chain: MEDKQETCPKGDSDFVSDKVNFKTEEDDDQTPCHSLEQVDFKSESEDMRQTDSGDEQADIRAASCACQPSGKFLAAESEDDYGSLFSQYSSTLYSVAMEAVTQSLLSSRHISSRKKSPAWKHFFISPRDSTKAICTYCMKEFSRGKNEKDLSTSCLMRHVRRAHPTKLIQENGSLSAGSSFSPPSLLLPPQPADVGDLSTVLSPVRLVQKMAPKIPSPDQIMEESVTVVSSEELSSDVSVTEKYSREEALAGSSPNLSMLHYDDASETMADRNLSLPKSTSGSRRRSAVWKHFYLSPLDSSKAVCVHCMNEFSRGKNGKDLGTSCLIRHMWRAHRSIVLQENGGNTGIPPLYPMPPTLLPALLPPEGDLNSASLSPGKQVKESPSASSSPERLPEDLSSHTNPGDVSREDVSMLSSSDDLGEASVVSSPEKQPADTVNPRFESGTVFQQNKKVMRRLKSEVWHHFSLAPMDSLKAVCRYCSCVISRGKKGDVGTSCLMRHLYRRHPEVVGNQKDFLGASLANSPYATLASAESSSKLTDLPAVVRKNHQGVFPTNSKKTSKLWNHFSICSADSTKVVCLHCGRTISRGKKPTNLGTSCLLRHLQRFHGHVLKNDVSEATLSRSPGIRRPLGIELSGPSSFRDSTEKFYDSHPVAKKITSLIAEMIALDLQPYSLVDNVGFNRLLEYLKPQYSLPSPSYFSRTAIPGMYDNVKQIIMSHLKEAESGVVHFTSGIWMSSQTREYLTLTAHWVTFASAVRPHCEDHHCSALLDVSQIDCDYSGNSIQKQLECWWEAWVTSIGLQIGITVTDNPSIGKMLSEGEHSSVQCFSHTVNLIVSEAIKSQRMVQNLLSIARKLCERVHRSPRAREKLAELQKEYELPQHQLIQDVPSKWSTSFHMLERLIEQKRAVNEVSIECNFRELISCDQWEVMQSVCHVLRPFDAASREMSAHMSTLSQVIPMIHILSRKVEMLFGETMGIDTMLKSLKEAMASRLSATLHDPRYIFATLLDPRYKASLFTEEEAEQYRQDLIRELEILNSTSEDTATSNGCDSGSPLKDTGTEESLWSLAPIKRDQREKLPEDMVLAYLEEEVLEHSCDPLTYWNLKRSSWPGLSTLAVRFLGCPPSTVPSEKLFSTPMDAGSFGQPRLMMEHFEKLIFLKVNLPLICFQY

- binding [4]: binds
- binding [5]: binds
B2: endogenous ZBED4 of Y79 retinoblastoma cells (protein, UniProt O75132 1-1171)
chain: MENNLKTCPKEDGDFVSDKIKFKIEEEDDDGIPPDSLERMDFKSEQEDMKQTDSGGERAGLGGTGCSCKPPGKYLSAESEDDYGALFSQYSSTLYDVAMEAVTQSLLSSRNMSSRKKSPAWKHFFISPRDSTKAICMYCVKEFSRGKNEKDLSTSCLMRHVRRAHPTVLIQENGSVSAVSSFPSPSLLLPPQPADAGDLSTILSPIKLVQKVASKIPSPDRITEESVSVVSSEEISSDMSVSEKCGREEALVGSSPHLPALHYDEPAENLAEKSLPLPKSTSGSRRRSAVWKHFYLSPLDNSKAVCIHCMNEFSRGKNGKDLGTSCLIRHMWRAHRAIVLQENGGTGIPPLYSTPPTLLPSLLPPEGELSSVSSSPVKPVRESPSASSSPDRLTEDLQSHLNPGDGLMEDVAAFSSSDDIGEASASSPEKQQADGLSPRLFESGAIFQQNKKVMKRLKSEVWHHFSLAPMDSLKAECRYCGCAISRGKKGDVGTSCLMRHLYRRHPEVVGSQKGFLGASLANSPYATLASAESSSSKLTDLPTVVTKNNQVMFPVNSKKTSKLWNHFSICSADSTKVVCLHCGRTISRGKKPTNLGTSCLLRHLQRFHSNVLKTEVSETARPSSPDTRVPRGTELSGASSFDDTNEKFYDSHPVAKKITSLIAEMIALDLQPYSFVDNVGFNRLLEYLKPQYSLPAPSYFSRTAIPGMYDNVKQIIMSHLKEAESGVIHFTSGIWMSNQTREYLTLTAHWVSFESPARPRCDDHHCSALLDVSQVDCDYSGNSIQKQLECWWEAWVTSTGLQVGITVTDNASIGKTLNEGEHSSVQCFSHTVNLIVSEAIKSQRMVQNLLSLARKICERVHRSPKAKEKLAELQREYALPQHHLIQDVPSKWSTSFHMLERLIEQKRAINEMSVECNFRELISCDQWEVMQSVCRALKPFEAASREMSTQMSTLSQVIPMVHILNRKVEMLFEETMGIDTMLRSLKEAMVSRLSATLHDPRYVFATLLDPRYKASLFTEEEAEQYKQDLIRELELMNSTSEDVAASHRCDAGSPSKDSAAEENLWSLVAKVKKKDPREKLPEAMVLAYLEEEVLEHSCDPLTYWNLKKASWPGLSALAVRFLGCPPSIVPSEKLFNTPTENGSLGQSRLMMEHFEKLIFLKVNLPLIYFQY
